Assay results as given in doi:10.1101/2022.05.27.493704.
These are yes or no findings as the source states them, for the method shown. For some assays here: In cells and extracts the contact can be indirect. Some results given as binding are weak or reduced against the parent protein; the word gives no strength.

Amino acid sequences for entries named in this document (tags omitted). Residues count along the entry.
UniProt Q96EP0, whole entry: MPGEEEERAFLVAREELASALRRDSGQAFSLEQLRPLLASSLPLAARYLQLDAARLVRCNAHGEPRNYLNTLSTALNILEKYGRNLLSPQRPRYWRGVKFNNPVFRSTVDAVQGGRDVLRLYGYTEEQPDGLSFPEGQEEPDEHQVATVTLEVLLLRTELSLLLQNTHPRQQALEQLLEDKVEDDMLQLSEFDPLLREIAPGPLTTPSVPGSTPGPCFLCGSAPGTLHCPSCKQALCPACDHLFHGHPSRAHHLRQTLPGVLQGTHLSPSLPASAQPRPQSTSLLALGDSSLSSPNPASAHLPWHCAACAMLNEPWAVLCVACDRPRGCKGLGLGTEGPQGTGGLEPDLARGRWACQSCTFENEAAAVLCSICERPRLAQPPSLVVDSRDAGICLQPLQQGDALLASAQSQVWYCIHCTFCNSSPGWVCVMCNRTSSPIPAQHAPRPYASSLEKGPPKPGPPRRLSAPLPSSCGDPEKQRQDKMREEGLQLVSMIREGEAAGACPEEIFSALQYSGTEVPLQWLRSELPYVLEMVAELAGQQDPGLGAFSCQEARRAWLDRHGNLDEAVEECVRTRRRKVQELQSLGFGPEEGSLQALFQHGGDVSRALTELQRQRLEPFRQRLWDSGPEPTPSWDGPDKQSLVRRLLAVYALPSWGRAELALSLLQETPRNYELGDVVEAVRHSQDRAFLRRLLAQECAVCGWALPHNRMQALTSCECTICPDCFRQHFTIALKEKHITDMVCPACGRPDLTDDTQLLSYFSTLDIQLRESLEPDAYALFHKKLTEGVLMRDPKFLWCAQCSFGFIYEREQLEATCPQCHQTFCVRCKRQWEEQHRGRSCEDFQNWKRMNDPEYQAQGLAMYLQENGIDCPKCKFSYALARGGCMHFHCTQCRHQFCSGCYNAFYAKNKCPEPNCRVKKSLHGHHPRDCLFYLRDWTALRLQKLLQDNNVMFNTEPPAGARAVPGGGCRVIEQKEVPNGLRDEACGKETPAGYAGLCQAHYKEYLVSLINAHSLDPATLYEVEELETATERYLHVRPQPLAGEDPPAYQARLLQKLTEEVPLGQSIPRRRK
UniProt Q96EP0, 1-475: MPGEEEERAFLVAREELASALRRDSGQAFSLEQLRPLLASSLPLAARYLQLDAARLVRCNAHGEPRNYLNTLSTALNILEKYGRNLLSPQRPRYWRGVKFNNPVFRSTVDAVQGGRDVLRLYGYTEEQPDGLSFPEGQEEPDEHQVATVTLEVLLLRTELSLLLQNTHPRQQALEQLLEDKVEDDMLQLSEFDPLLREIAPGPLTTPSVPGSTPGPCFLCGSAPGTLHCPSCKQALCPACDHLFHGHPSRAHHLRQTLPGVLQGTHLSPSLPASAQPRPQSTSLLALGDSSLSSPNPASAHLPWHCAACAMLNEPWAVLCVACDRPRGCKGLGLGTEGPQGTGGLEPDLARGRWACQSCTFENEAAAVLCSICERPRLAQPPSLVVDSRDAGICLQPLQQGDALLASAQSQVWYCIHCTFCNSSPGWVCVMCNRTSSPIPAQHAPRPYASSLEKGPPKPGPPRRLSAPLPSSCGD
UniProt Q96EP0, 1-697: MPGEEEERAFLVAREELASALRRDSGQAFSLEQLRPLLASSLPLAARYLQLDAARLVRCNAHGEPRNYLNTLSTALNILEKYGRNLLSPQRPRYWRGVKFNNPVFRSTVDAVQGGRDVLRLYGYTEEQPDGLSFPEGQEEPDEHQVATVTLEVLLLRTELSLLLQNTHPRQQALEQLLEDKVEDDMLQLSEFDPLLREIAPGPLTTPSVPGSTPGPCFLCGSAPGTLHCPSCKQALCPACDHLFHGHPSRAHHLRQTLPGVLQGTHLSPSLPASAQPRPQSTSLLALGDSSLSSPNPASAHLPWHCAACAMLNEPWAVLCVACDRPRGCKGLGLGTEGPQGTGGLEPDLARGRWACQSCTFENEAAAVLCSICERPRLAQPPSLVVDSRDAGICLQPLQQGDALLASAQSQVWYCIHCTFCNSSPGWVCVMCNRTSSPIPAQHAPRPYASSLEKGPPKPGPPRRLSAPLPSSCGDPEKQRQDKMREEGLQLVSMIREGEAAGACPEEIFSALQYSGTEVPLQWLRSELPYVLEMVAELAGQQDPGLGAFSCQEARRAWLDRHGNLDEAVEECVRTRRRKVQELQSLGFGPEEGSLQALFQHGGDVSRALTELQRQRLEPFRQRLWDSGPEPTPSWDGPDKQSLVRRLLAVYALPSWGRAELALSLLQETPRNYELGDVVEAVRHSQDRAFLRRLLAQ
UniProt Q96EP0, 697-1072: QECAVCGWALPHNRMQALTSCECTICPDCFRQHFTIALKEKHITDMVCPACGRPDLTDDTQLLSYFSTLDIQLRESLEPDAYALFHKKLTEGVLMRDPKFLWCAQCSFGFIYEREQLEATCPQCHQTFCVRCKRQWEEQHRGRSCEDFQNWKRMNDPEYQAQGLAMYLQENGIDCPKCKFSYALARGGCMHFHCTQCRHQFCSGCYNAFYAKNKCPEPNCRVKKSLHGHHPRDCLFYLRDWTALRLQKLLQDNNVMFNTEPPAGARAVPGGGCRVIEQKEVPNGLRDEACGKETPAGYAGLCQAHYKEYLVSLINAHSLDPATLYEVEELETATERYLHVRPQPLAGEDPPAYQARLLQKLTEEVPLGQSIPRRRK
UniProt Q9BXM7, 78-581: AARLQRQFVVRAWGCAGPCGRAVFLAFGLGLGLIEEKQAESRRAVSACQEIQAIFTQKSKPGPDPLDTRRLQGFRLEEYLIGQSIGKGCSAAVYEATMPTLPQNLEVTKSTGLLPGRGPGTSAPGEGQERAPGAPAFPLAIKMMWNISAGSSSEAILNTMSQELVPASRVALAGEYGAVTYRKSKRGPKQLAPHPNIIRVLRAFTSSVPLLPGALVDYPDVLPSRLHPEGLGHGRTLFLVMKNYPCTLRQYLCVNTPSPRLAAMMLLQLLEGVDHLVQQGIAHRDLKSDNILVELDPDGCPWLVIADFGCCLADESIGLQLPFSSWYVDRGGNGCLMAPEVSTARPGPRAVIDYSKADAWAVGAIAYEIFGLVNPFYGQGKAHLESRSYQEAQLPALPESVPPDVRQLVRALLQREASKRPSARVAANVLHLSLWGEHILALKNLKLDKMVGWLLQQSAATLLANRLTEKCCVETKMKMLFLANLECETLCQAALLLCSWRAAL

What was measured:
[1] = molecular target: endogenous HOIP (human (endogenous in HEK293T)) (UniProt Q96EP0); experiment: SEC
[2] = molecular target: HA-tagged C-terminal part of HOIP (aa 697-1072) (human) (UniProt Q96EP0); experiment: co-IP
[3] = molecular target: HA-tagged full-length HOIP (human) (UniProt Q96EP0); experiment: co-IP
[4] = molecular target: HA-tagged HOIP 1-475 aa construct (human) (UniProt Q96EP0); experiment: co-IP
[5] = molecular target: HA-HOIP 1-697 (N-terminal part of HOIP) (human) (UniProt Q96EP0); experiment: co-IP

binding [1]: binds | binding [2]: no binding | binding [3]: binds | binding [4]: binds | binding [5]: binds
Substance: V5-tagged PINK1 (wildtype PINK1-V5) (from UniProt Q9BXM7 78-581)
